Screening data, single-dose tests

Chains of the proteins cited; added tags and fusions are not shown. Residues count along the entry.
UniProt P9WPC5, whole entry: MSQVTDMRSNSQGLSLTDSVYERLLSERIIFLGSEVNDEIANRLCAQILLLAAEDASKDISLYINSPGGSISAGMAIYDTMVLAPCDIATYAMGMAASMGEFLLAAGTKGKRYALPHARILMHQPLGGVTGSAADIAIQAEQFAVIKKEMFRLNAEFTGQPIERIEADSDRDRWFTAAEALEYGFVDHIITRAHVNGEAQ
UniProt P9WPC3, whole entry partner: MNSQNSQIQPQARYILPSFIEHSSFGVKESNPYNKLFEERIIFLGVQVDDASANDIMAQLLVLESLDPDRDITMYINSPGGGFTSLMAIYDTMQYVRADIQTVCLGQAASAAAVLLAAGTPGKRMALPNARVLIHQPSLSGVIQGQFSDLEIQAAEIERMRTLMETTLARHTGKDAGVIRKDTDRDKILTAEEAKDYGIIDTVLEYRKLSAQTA
UniProt Q4DA54, 1-478: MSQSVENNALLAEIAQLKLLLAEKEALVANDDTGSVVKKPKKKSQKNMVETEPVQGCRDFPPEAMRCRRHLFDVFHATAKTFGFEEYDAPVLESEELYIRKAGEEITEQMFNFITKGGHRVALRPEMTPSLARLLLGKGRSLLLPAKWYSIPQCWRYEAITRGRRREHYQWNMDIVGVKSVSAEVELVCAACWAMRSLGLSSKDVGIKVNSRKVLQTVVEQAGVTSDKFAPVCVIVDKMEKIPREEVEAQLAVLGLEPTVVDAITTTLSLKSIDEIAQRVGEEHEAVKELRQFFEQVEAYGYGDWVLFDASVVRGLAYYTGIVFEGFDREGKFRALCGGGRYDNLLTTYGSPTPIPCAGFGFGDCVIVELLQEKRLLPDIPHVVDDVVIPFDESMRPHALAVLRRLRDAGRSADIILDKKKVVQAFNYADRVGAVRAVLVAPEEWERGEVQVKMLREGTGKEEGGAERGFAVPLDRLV
UniProt Q8IDJ8, 1-583: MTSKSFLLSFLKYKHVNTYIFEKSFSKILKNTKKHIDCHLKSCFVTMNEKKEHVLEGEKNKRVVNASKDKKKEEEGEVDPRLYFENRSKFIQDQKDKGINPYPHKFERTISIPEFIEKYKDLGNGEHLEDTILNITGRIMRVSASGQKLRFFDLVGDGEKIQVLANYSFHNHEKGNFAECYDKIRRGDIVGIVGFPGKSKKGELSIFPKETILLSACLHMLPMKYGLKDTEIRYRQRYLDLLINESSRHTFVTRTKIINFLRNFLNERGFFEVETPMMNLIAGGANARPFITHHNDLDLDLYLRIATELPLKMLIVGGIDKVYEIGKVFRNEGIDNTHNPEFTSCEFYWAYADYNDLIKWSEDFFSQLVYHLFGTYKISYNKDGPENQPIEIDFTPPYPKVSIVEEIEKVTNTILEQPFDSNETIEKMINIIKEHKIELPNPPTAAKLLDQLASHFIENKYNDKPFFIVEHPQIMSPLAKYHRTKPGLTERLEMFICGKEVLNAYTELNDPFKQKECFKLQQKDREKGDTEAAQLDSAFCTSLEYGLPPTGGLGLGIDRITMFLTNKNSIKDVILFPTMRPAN
UniProt P9WNZ1, whole entry: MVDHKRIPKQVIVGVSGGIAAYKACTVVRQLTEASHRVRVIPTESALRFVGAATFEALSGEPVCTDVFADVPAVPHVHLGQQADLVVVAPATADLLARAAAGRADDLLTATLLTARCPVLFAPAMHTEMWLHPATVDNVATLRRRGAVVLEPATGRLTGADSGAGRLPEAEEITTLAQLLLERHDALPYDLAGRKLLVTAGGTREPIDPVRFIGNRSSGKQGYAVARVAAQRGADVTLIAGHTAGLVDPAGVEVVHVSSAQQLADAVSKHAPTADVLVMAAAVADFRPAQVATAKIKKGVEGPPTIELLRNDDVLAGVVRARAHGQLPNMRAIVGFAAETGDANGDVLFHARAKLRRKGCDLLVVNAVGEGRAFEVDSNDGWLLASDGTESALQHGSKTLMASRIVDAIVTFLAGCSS
UniProt I6X8D2, whole entry: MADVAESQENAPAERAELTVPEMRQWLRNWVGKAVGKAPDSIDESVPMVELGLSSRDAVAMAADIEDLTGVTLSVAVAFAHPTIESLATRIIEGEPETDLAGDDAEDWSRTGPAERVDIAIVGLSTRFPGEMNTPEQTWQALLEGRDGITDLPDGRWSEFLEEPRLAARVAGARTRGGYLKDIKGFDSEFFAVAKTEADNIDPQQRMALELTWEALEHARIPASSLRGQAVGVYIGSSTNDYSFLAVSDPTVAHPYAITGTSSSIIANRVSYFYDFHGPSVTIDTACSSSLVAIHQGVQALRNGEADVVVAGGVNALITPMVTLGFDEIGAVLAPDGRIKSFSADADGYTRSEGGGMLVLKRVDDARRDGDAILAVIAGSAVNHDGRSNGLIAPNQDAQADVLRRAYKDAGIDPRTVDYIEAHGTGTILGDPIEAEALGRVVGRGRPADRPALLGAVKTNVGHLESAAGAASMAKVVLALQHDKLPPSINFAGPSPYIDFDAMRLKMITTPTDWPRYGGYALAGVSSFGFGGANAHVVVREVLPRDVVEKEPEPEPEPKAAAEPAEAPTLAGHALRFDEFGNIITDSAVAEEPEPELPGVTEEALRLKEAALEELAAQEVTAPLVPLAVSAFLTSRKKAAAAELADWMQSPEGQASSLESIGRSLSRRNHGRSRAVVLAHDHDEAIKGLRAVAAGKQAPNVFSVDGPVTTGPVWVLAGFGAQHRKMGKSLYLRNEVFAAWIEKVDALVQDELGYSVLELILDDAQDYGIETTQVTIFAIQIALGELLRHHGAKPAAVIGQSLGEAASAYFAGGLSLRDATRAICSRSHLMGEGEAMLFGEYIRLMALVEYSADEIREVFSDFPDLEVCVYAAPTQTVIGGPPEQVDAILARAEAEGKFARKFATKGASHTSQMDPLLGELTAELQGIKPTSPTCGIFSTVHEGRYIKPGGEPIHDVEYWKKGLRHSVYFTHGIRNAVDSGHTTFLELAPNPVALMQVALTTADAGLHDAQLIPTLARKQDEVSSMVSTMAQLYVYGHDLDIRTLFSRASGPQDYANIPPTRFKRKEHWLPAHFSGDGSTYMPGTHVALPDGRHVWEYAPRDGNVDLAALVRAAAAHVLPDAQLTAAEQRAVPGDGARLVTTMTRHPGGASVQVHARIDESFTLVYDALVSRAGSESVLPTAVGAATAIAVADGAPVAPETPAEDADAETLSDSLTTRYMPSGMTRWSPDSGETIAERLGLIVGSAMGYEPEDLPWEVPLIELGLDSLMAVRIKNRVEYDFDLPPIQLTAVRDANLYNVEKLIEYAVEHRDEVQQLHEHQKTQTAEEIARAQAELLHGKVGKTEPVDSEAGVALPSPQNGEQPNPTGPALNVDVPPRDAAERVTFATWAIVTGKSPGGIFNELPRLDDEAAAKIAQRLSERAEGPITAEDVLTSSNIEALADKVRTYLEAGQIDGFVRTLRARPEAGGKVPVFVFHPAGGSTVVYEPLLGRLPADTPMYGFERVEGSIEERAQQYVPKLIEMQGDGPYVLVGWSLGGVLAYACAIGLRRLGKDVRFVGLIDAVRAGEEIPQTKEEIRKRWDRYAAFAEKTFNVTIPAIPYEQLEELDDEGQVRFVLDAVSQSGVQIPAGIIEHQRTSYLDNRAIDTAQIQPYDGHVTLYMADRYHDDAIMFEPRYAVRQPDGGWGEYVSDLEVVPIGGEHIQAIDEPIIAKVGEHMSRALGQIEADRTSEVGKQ

ClpP1P2: 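Protease assay of ClpP1P2, read by the AMC dye that it sets free. Target: ClpP1P2, Mycobacterium tuberculosis (UniProt P9WPC5 and UniProt P9WPC3). Tested at 50 µM. Higher reads as stronger inhibition, judged from the few compounds that gave an IC50. Most other retested compounds had strongly negative values. About 69,000 compounds were tested under these conditions; 0.015% (about 10) showed 50% or more at least once.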
TcHisRS: 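Histidine-tRNA ligase, Trypanosoma cruzi CL Brener (UniProt Q4DA54). Enzyme assay of histidyl-tRNA synthetase; the read-out is not stated. Compounds at 30 µM. The record gives no direction; compounds that gave an IC50 in retests scored well above the rest, so higher reads as stronger inhibition. Of about 69,000 compounds tested this way, about 31 (0.045%) reached 50% or more in at least one test.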
PfKRS1: 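Enzyme assay of the cytosolic lysyl-tRNA synthetase in 384-well plates, read by luminescence. Target: Lysine-tRNA ligase, Plasmodium falciparum 3D7 (UniProt Q8IDJ8). Compounds at 30 µM. Higher reads as stronger inhibition, judged from the few compounds that gave an IC50. Of about 69,000 compounds tested this way, about 49 (0.071%) reached 50% or more in at least one test.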
CoaBC: 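Enzyme assay of CoaBC with a phosphate dye (Biomol Green) read at 650 nm. Target: Coenzyme A biosynthesis protein CoaBC, Mycobacterium tuberculosis (UniProt P9WNZ1). Compounds at 30 µM. Higher reads as stronger inhibition, judged from the few compounds that gave an IC50. Most strong results did not repeat in a second test. Of about 67,000 compounds tested this way, about 40 (0.06%) reached 50% or more in at least one test.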
Leishmania in macrophages: 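Cell assay of Leishmania donovani living inside macrophages; the read-out is not stated. Concentration: 30 µM. Higher reads as stronger inhibition (inferred: compounds with an IC50 in retests scored well above the rest). Of about 69,000 compounds tested this way, about 1,000 (1.5%) reached 50% or more in at least one test.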
Pks13 thioesterase: 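Enzyme assay of the thioesterase domain of polyketide synthase 13; the read-out is not stated. Target: Polyketide synthase Pks13, Mycobacterium tuberculosis (UniProt I6X8D2). Tested at 30 µM. Higher reads as stronger inhibition (inferred from which compounds were picked for retests). Size under these conditions: about 67,000 compounds, about 300 of them at 50% or above in at least one test.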

The filed quantity is “Percent Effect” (%).
The controls that fix the scale are not given in the record; negative values are as filed.
This is an unselected part of the compounds tested.

- COc1cccc2c1OCC(C(=O)N1CCN(C3CCCC3)C(=O)C1)C2 (configuration not stated) : ClpP1P2: -9.383%; TcHisRS: 2.513%; PfKRS1: 6.582%; CoaBC: 1.086%; Leishmania in macrophages: 17.05%; Pks13 thioesterase: -6.467%
- Cn1c(CCN2CCN(CCc3ccccc3)CC2)nc2ccccc21 : ClpP1P2: -5.529%; TcHisRS: 0.5848%; PfKRS1: -0.07274%; CoaBC: 3.283%; Leishmania in macrophages: 11%; Pks13 thioesterase: -14.49%
- O=C(O)C(F)(F)F.[H][C@@]12CCN(C(=O)c3ccco3)C[C@]1([H])[C@@H](CN(C)C)OC2 : Leishmania in macrophages: 4.957%
- Cc1nc(-c2ccncc2)ncc1C(C)NC(=O)CN1CCCC1=O (configuration not stated) : ClpP1P2: -5.798%; TcHisRS: 4%; PfKRS1: 3.283%; CoaBC: 2.381%; Leishmania in macrophages: -12.41%; Pks13 thioesterase: -7.138%
- CSCc1ccc(N2CCC(C(O)Cc3ccccc3)CC2)nc1 (configuration not stated) : ClpP1P2: 15.31%; TcHisRS: -4.255%; PfKRS1: -8.321%; CoaBC: -4.016%; Leishmania in macrophages: 26.59%; Pks13 thioesterase: 101%
- O=C1C(NCc2cccc(O)c2)CCN1Cc1ccccc1 (configuration not stated) : ClpP1P2: -4.674%; TcHisRS: 8.642%; PfKRS1: 4.042%; CoaBC: -4.914%; Leishmania in macrophages: 16.44%; Pks13 thioesterase: -10.57%
- CC(NC(=O)NCCNc1cccc(F)c1C#N)c1nccs1 (configuration not stated) : ClpP1P2: 5.788%; TcHisRS: 5.82%; PfKRS1: 2.379%; CoaBC: 10.18%; Leishmania in macrophages: 20.05%; Pks13 thioesterase: -22.22%
- Cc1nccn1C1CCCN(C(=O)c2cnc[nH]2)C1 (configuration not stated) : ClpP1P2: -15.17%; TcHisRS: 5.714%; PfKRS1: 0.1973%; CoaBC: -1.837%; Leishmania in macrophages: 26.37%; Pks13 thioesterase: -2.712%
- Cl.Fc1cccc(CN2CCC(c3cc4ncccc4cn3)CC2)c1F : Leishmania in macrophages: 51.12%
- CCN1CCOCC2(CCCN(c3nncs3)C2)C1 (configuration not stated) : ClpP1P2: 1.329%; TcHisRS: 1.149%; PfKRS1: 1.141%; CoaBC: 5.499%; Leishmania in macrophages: 30.19%; Pks13 thioesterase: -27.54%
- Cc1cnc(N2CCCC3(CCCN3CC(=O)N(C)C)C2)nc1.O=C(O)C(F)(F)F (configuration not stated) : Leishmania in macrophages: -9.068%
- CC(=O)N1CCCN(C(=O)NCCNc2cnccn2)CC1 : ClpP1P2: -44.51%; TcHisRS: 2.579%; PfKRS1: 2.245%; CoaBC: -2.857%; Leishmania in macrophages: 10.17%; Pks13 thioesterase: 10.96%

The first 2 entries again:

structure,ClpP1P2,TcHisRS,PfKRS1,CoaBC,Leishmania in macrophages,Pks13 thioesterase
COc1cccc2c1OCC(C(=O)N1CCN(C3CCCC3)C(=O)C1)C2 (configuration not stated),-9.383%,2.513%,6.582%,1.086%,17.05%,-6.467%
Cn1c(CCN2CCN(CCc3ccccc3)CC2)nc2ccccc21,-5.529%,0.5848%,-0.07274%,3.283%,11%,-14.49%

The values are deposited in ChEMBL (CHEMBL3988442, “University of Dundee, Small-Polar-MMV Screening Library” (2021)).